The list shows a part of the results.
How the values were obtained:
Test in all cases: log2 fold change, soluble protein after heating vs DMSO (PISA); higher = thermal stabilisation; K562 cells, 10 uM, 30 min; active = over 0.2 and 3.5 SD of the protein, either way, in both replicates (recomputed)
[1] = compound: C1=CC=C(C=C1)[C@H](COC2=CC3=C(C=C2)NC(=O)N3)NC(=O)C4=CC=CN(C4=O)CC5=CC(=C(C=C5)F)F
How it was run: (§1)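 K562 cells at 2×10^6 cells/mL were given 10 μM compound for 30 min. Aliquots then went through 3 min of heating across 48°C-58°C, were pooled, and were extracted in PBS with 0.5% NP-40 at 4°C, and the supernatant after 21,000xg for 90 min was quantified by TMTpro 16plex LC-MS/MS with channel sums equalised. Thermal stability relative to control samples, from duplicates, is given as log2 fold change.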

By UniProt entry, the sequences of proteins in these tests, tags left out. Where a name states a change or a piece, a line headed by the entry shows the natural chain unless it says otherwise.
UniProt P30291: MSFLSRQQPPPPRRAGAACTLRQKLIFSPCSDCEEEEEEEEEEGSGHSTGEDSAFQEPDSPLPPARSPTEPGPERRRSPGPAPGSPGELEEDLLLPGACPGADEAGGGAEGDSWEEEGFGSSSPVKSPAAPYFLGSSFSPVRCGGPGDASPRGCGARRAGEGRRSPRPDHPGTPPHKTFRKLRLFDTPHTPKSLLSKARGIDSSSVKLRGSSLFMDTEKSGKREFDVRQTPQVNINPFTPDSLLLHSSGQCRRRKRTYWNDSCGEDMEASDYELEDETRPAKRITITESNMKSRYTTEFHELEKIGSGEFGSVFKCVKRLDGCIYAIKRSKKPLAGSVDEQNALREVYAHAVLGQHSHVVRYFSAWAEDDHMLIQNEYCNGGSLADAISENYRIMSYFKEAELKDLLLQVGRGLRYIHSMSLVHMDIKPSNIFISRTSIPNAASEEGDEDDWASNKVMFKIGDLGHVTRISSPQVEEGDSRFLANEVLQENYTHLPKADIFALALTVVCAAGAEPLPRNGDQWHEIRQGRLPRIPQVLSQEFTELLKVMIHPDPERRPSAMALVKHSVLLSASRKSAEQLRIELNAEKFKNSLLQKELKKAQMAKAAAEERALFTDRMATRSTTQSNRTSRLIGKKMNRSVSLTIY
UniProt Q6RFH5: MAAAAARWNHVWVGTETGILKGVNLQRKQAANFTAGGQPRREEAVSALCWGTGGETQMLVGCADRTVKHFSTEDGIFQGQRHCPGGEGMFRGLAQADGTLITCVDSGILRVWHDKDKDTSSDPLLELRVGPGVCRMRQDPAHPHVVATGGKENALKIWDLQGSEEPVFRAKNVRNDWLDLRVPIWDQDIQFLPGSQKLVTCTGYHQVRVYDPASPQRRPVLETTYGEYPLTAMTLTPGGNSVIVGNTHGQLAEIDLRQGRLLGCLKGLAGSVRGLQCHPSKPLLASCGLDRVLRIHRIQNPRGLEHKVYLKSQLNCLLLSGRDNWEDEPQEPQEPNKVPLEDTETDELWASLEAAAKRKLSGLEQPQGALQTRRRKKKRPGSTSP
UniProt Q7Z7G8: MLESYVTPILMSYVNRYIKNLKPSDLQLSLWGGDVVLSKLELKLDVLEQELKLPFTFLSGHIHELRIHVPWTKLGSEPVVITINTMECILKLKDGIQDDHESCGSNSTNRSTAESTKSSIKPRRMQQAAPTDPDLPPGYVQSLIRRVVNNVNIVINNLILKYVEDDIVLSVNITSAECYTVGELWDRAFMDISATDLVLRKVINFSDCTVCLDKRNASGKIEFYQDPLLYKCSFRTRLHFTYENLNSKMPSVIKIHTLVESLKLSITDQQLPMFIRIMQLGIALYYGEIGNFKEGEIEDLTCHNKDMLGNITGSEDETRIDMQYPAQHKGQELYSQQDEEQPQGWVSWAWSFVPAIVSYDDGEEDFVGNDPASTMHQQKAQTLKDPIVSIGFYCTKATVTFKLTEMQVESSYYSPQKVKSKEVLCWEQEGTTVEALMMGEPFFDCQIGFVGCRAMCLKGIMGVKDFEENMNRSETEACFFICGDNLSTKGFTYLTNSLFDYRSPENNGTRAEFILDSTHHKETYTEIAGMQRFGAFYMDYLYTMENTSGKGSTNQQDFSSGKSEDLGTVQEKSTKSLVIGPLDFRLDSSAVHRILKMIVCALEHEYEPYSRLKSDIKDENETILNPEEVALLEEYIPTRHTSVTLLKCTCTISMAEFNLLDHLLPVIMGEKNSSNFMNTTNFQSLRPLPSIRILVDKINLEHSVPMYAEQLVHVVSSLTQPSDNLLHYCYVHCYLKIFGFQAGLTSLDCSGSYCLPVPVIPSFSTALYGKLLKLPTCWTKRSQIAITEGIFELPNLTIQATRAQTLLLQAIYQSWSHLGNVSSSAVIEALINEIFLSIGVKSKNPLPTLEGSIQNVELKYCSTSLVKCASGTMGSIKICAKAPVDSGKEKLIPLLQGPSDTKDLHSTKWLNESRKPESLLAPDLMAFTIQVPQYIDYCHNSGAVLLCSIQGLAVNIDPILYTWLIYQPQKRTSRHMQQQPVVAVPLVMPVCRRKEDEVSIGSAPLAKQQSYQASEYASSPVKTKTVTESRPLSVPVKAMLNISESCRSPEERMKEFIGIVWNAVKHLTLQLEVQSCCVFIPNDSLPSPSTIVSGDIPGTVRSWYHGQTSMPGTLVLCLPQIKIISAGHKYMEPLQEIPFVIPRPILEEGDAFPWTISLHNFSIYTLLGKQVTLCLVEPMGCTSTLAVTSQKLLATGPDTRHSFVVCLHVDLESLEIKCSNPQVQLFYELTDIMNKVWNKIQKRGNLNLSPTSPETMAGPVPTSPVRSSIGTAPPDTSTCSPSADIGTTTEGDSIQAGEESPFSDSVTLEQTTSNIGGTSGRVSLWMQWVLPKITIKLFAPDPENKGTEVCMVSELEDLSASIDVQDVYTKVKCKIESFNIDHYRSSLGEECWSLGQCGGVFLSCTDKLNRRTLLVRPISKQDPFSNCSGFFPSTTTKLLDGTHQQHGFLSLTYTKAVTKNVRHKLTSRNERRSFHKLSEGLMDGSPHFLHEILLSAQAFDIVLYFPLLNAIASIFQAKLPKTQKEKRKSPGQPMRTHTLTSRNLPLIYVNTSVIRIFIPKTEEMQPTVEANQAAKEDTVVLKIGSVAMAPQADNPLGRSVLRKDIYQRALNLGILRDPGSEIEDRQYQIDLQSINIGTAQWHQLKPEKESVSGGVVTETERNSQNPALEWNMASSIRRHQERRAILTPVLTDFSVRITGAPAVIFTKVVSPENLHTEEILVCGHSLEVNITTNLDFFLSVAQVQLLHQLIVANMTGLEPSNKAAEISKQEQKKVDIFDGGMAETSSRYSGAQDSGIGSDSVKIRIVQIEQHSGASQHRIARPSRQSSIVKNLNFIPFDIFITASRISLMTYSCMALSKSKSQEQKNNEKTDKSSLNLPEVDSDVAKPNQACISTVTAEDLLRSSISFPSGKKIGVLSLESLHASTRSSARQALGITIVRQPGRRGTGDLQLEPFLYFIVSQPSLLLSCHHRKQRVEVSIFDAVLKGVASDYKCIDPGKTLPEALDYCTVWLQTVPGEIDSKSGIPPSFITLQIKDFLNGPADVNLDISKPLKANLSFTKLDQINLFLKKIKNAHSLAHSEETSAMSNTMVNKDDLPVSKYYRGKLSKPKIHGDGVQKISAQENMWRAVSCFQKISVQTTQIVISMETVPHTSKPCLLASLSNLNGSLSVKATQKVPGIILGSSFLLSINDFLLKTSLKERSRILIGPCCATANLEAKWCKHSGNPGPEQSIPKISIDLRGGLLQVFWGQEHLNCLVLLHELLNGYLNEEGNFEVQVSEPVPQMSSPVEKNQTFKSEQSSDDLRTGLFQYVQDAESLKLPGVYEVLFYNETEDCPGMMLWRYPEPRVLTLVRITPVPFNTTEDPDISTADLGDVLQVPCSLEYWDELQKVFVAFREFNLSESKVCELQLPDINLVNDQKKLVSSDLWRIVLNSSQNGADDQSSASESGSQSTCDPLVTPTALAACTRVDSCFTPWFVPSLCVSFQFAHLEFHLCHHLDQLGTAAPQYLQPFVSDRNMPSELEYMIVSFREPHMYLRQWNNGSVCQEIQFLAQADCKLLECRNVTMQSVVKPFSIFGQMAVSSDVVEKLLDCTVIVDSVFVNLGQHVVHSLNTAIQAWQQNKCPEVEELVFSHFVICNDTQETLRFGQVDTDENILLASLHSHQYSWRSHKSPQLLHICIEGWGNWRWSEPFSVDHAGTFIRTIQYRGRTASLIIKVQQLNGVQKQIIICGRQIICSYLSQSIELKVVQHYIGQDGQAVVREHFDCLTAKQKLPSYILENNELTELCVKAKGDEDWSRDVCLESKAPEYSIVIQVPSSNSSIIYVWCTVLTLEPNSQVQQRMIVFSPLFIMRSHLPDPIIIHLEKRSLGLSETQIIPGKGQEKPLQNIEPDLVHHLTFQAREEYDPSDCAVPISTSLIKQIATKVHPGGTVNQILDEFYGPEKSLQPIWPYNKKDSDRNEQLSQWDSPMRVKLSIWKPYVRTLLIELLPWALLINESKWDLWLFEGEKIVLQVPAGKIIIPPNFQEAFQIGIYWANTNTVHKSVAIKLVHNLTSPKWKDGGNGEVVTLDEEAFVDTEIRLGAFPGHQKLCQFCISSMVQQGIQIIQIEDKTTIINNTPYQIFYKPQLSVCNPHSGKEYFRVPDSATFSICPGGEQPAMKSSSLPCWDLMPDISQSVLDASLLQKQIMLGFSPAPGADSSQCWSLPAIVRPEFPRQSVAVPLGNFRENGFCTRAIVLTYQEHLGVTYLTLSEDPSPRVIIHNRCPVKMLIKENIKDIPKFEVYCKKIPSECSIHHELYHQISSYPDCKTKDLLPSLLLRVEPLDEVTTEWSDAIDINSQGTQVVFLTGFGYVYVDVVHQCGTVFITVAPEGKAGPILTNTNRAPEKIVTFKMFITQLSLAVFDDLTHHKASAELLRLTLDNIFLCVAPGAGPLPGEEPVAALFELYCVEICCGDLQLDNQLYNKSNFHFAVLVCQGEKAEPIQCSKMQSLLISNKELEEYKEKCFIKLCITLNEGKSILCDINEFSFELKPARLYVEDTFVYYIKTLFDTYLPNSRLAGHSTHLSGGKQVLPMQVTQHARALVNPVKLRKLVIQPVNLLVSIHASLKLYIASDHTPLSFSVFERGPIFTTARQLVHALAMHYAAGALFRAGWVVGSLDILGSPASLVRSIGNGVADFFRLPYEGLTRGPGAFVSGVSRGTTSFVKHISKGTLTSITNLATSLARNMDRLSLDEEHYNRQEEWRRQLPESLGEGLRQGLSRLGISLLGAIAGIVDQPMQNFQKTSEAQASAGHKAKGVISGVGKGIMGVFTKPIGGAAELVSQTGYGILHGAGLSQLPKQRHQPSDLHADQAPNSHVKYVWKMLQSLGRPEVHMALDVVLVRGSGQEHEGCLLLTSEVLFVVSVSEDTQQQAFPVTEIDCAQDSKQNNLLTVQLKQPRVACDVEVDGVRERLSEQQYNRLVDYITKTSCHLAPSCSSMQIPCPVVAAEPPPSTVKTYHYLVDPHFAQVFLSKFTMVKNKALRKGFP
UniProt Q96GC9: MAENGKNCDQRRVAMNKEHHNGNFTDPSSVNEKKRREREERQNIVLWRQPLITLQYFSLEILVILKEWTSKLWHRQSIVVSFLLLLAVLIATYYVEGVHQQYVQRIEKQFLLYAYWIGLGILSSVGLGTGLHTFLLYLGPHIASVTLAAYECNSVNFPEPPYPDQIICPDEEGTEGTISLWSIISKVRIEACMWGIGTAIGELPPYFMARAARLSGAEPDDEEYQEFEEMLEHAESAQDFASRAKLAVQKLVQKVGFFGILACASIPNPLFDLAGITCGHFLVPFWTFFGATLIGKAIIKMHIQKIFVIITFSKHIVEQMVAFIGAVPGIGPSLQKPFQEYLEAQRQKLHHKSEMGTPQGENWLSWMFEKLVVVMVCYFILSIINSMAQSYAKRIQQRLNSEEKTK
UniProt Q6P4I2: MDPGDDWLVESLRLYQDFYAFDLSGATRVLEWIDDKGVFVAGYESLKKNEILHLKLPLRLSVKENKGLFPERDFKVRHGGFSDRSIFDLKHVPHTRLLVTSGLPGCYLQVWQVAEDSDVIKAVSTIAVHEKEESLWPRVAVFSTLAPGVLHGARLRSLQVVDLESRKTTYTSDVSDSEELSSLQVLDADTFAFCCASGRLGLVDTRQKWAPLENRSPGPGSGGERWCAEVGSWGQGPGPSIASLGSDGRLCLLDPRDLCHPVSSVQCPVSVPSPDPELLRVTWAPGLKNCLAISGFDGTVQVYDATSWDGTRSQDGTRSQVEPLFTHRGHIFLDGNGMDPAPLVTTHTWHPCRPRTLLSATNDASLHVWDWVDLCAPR
UniProt Q96S55: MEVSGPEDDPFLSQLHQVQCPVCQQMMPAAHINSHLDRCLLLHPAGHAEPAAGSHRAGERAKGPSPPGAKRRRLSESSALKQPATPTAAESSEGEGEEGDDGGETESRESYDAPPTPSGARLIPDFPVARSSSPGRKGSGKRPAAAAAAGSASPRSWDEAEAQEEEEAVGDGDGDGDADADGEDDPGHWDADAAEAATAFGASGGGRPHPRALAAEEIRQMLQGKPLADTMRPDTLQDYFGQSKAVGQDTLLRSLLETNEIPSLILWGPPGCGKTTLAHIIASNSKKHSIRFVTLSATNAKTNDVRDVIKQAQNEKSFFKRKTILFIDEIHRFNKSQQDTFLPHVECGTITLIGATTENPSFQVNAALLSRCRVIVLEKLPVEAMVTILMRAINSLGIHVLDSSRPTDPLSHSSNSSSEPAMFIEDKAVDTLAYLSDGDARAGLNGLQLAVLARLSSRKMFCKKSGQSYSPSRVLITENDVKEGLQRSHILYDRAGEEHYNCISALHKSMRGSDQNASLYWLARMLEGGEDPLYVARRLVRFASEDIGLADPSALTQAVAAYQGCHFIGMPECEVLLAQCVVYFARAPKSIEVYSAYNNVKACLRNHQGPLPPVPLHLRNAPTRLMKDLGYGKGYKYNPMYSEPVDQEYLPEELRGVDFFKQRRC

[2] = compound: CC1=C(SC2=C1C(=N[C@H](C3=NN=C(N32)C)CC(=O)N)C4=CC=C(C=C4)Cl)C
How it was run: as §1

[3] = compound: CC1=C2C(=CC=C1)N=C(N(C2=O)C3=CC=CC=C3C)CN4C=NC5=C(N=CN=C54)N
How it was run: as §1

[4] = compound: Cc1sc2c(c1C)C(c1ccc(Cl)cc1)=N[C@@H](CC(=O)OC(C)(C)C)c1nnc(C)n1-2
How it was run: as §1

[5] = compound: c1ccc([C@@H]2C[C@H]2NC2CCNCC2)cc1
How it was run: as §1

Measured: log2 fold change

WEE1 (UniProt P30291)
inactive: [1] 0.116 | [2] -0.031 | [3] -0.059 | [4] 0.132 | [5] 0.11

WDR74 (UniProt Q6RFH5)
inactive: [1] 0.028 | [2] -0.162 | [3] -0.22 | [4] 0.108 | [5] 0.016

VPS13B (UniProt Q7Z7G8)
inactive: [1] 0 | [2] -0.008 | [3] 0.068 | [4] -0.057 | [5] 0.031

WIPI2 (UniProt Q9Y4P8)
inactive: [1] -0.043 | [2] 0.11 | [3] 0.052 | [4] -0.074 | [5] -0.008

VMP1 (UniProt Q96GC9)
inactive: [1] 0.038 | [2] 0.014 | [3] 0.014 | [4] 0.013 | [5] 0.088

VRK1 (UniProt Q99986)
inactive: [1] -0.13 | [2] 0.02 | [3] 0.178 | [4] -0.019 | [5] -0.136

VKORC1L1, A0A3B3ISV4
inactive: [1] -0.024 | [2] 0.057 | [3] -0.017 | [4] -0.06 | [5] 0.044

WDR73 (UniProt Q6P4I2)
inactive: [1] 0.007 | [2] 0.05 | [3] 0.07 | [4] -0.017 | [5] 0.011

WRNIP1 (UniProt Q96S55)
inactive: [1] -0.196 | [2] 0.049 | [3] 0.12 | [4] 0.06 | [5] -0.05

From the supplement of paper PMC10849652
